According to the supplement of paper PMC10849652:
The other results are listed elsewhere or left out.

Chains of the proteins cited; added tags and fusions are not shown. Lines headed by an entry give the natural chain unless they say otherwise; changes in a name come on top.
UniProt Q3KQV9: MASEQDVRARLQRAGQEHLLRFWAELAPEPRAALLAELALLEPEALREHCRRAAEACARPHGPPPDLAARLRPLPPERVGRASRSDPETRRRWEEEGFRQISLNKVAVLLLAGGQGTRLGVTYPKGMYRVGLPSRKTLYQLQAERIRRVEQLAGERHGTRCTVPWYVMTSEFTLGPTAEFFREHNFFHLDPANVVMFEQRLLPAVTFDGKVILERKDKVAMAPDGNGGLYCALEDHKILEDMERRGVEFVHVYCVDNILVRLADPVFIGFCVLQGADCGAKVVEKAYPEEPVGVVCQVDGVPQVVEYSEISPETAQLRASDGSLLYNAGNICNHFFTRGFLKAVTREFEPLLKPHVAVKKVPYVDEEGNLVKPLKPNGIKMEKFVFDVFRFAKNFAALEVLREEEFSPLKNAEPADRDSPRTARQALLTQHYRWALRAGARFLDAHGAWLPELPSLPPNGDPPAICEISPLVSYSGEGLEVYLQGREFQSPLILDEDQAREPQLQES
UniProt Q13885, whole entry, looked up: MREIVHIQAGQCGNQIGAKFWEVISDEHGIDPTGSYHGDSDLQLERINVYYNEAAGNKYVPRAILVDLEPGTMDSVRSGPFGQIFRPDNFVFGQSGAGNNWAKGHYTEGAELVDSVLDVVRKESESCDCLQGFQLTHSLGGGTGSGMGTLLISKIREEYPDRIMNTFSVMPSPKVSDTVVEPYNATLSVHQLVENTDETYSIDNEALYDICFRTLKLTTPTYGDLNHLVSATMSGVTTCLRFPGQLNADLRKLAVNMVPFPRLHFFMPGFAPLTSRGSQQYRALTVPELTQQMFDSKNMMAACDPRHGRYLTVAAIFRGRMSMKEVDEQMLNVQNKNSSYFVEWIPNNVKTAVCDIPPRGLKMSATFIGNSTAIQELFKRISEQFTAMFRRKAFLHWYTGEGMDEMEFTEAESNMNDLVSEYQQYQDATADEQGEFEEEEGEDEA
UniProt Q13509, whole entry, looked up: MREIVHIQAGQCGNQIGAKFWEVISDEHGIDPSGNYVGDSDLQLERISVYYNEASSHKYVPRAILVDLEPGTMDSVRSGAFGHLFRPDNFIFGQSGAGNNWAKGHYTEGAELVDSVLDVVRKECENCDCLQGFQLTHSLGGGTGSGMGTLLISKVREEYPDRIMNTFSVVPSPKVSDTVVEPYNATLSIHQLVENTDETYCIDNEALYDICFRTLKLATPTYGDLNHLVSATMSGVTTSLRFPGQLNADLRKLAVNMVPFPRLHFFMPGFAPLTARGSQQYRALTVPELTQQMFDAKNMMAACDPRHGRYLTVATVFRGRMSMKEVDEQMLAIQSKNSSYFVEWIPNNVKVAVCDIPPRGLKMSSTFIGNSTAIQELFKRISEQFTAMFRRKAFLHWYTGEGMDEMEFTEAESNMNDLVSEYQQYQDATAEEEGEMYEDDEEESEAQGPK
UniProt Q9UJT0: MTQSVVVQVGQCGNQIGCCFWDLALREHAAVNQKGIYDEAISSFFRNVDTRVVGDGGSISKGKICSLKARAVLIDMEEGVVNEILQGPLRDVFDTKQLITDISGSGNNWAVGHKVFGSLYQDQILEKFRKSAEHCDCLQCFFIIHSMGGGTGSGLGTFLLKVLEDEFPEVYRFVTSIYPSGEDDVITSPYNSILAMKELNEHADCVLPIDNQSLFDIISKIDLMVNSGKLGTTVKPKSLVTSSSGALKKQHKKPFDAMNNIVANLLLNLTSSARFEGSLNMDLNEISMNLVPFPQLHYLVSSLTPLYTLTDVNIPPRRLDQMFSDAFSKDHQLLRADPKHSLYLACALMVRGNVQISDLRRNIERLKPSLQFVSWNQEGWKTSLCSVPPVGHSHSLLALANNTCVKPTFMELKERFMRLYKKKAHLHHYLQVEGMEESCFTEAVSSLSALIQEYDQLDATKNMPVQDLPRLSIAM
UniProt P51668: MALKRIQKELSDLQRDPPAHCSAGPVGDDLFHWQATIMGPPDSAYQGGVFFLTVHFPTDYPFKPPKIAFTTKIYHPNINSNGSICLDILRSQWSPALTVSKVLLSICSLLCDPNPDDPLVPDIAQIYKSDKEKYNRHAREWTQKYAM
UniProt Q9H6E5: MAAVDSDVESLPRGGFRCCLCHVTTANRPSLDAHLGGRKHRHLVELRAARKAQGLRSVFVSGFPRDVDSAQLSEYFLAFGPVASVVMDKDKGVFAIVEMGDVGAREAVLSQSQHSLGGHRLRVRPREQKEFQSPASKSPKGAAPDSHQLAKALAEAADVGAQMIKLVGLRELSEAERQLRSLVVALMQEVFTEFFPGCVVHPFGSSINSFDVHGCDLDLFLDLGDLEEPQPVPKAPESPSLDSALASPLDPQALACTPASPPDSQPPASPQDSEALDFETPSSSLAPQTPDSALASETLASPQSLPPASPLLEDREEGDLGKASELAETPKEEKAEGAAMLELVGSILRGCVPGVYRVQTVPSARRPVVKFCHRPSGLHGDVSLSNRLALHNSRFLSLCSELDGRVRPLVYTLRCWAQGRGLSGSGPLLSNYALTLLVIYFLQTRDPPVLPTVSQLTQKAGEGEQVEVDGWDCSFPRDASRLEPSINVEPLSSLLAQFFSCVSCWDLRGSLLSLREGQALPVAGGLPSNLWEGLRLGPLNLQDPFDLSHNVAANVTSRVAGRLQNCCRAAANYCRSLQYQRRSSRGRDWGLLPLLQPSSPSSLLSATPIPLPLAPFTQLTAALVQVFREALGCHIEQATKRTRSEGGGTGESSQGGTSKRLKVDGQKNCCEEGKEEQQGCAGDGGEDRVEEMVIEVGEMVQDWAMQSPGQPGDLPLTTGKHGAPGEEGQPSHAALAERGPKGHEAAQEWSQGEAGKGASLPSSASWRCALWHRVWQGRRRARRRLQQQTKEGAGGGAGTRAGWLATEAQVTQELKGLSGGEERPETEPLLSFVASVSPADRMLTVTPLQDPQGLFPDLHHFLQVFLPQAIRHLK
UniProt Q8TBC4: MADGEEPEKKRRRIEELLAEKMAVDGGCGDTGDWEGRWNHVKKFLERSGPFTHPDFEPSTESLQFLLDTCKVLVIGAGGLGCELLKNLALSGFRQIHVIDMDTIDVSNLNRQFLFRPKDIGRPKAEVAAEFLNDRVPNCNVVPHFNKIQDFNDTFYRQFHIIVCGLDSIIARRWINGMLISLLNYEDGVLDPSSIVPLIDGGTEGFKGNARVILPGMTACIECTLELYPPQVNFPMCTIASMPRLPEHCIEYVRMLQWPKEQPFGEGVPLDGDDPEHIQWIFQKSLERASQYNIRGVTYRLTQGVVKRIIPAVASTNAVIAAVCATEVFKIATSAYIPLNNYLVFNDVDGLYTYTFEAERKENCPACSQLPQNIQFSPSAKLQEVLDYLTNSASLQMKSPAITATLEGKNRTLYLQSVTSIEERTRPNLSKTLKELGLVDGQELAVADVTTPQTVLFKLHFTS
UniProt Q8N806: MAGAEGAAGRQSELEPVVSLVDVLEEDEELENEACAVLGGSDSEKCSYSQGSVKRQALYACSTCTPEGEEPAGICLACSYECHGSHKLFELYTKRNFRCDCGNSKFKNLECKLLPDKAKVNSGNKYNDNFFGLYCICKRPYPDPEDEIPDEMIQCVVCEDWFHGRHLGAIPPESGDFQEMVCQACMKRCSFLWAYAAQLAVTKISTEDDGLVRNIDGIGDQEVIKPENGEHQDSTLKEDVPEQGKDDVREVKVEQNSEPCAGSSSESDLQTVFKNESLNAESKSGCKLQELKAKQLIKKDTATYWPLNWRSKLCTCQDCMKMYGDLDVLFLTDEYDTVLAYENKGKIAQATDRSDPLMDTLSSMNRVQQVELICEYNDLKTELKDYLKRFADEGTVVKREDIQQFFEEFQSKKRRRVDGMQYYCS
UniProt Q9UGJ1, whole entry, looked up: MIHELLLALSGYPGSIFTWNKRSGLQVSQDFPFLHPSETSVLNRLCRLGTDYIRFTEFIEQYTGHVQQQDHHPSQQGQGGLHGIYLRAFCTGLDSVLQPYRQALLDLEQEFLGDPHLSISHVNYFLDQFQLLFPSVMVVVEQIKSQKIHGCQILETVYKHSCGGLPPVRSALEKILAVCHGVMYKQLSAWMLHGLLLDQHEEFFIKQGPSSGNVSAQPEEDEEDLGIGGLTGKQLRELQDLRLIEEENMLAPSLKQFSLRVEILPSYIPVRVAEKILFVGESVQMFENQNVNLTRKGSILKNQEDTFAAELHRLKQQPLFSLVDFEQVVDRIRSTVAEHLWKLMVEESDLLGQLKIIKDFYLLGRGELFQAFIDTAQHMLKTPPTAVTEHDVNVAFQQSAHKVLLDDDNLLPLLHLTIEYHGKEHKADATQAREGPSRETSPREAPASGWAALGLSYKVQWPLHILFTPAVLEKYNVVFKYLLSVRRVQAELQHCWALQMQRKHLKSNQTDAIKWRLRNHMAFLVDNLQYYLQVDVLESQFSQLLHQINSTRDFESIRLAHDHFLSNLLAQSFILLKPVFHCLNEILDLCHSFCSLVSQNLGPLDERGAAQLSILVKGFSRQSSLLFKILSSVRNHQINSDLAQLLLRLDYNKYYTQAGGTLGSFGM
UniProt Q92575: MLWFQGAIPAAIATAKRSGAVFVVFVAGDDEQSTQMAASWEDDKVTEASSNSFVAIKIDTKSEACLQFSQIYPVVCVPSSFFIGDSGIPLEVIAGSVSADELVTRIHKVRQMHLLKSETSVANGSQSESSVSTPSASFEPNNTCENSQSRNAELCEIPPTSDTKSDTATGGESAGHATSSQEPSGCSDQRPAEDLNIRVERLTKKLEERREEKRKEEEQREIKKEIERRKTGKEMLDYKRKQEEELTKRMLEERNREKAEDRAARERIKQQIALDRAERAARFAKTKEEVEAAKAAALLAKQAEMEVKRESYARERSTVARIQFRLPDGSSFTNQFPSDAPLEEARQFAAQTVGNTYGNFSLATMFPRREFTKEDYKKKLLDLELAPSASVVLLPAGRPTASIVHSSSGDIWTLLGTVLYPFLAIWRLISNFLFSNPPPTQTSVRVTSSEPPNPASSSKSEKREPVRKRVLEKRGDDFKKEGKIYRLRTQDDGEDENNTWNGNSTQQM
UniProt P07437, whole entry, looked up: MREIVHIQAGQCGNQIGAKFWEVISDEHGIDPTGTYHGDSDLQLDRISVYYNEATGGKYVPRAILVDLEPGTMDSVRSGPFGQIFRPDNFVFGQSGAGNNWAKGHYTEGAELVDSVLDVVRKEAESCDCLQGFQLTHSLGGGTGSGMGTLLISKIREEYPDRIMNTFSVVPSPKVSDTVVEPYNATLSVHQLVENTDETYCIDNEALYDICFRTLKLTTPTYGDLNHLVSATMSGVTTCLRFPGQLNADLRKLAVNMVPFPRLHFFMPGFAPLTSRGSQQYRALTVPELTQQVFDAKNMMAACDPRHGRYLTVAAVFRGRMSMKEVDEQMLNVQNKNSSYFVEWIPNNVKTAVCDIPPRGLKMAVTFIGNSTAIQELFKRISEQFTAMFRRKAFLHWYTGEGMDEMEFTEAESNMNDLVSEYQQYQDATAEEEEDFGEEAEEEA
UniProt Q9UBT2: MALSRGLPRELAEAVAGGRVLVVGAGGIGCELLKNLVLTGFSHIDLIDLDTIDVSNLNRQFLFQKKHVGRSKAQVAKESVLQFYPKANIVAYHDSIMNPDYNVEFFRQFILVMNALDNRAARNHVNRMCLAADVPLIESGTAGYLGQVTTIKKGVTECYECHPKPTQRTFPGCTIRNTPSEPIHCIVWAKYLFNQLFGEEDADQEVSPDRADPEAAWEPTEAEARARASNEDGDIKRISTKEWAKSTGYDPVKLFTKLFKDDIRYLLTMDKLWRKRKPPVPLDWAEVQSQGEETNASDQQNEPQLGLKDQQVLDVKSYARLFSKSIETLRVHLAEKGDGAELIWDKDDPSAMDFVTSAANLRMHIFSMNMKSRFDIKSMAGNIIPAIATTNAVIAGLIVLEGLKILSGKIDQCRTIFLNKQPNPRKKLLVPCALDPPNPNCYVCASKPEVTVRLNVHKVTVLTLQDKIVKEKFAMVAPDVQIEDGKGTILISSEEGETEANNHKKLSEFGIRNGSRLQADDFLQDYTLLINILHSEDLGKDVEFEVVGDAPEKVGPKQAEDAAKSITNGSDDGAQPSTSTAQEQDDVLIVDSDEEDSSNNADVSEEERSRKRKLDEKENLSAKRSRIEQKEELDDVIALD
UniProt Q16222: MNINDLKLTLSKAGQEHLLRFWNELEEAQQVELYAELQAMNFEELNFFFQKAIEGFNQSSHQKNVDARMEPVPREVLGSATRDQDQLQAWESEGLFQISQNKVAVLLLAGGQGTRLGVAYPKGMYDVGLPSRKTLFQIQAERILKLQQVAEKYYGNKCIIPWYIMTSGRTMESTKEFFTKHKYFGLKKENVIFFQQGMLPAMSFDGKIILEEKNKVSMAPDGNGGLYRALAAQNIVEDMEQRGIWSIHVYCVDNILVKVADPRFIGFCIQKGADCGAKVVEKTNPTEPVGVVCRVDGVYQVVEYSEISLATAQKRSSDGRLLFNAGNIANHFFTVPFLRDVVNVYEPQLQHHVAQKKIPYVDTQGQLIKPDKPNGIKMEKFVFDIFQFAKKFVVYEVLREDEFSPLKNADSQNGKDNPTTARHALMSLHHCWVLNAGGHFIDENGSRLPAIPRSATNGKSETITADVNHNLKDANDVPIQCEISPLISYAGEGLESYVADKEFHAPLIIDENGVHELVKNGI

Columns and labels:
Test in all cases: log2 fold change, soluble protein after heating vs DMSO (PISA); higher = thermal stabilisation; K562 lysate, 10 uM; active = over 0.2 and 3.5 SD of the protein, either way, in both replicates (recomputed)
[1] = compound: CN1CC[C@H](c2c(O)cc(O)c3c(=O)cc(-c4ccccc4Cl)oc23)[C@H](O)C1 [alvocidib]
How it was run: (§1)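 To prepare the extract, K562 pellets were dounce-homogenised in PBS pH 7.4 with 1 mM MgCl2, giving crude material at 1 mg/mL protein. This was treated with 10 μM compound for 30 min, then heated in aliquots for 3 min over 48°C-58°C before pooling and addition of NP-40 to 0.5% at 4°C. Centrifugation at 21,000xg for 90 min left soluble protein in the supernatant, which TMTpro 16plex LC-MS/MS quantified with equalised channel sums. Results are log-two fold changes in thermal stability compared with solvent controls, from duplicates.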

[2] = compound: CN1CCc2c(c3ccccc3n2Cc2ccc(C(=O)NO)cc2)C1 [Tubastatin A]
How it was run: as §1

[3] = compound: CNC(=O)C1=CC=CC=C1NC2=NC(=NC=C2Cl)NC3=C(C=C(C=C3)N4CCOCC4)OC
How it was run: as §1

[4] = compound: CNC(=O)c1ccc(Nc2ncc(C(F)(F)F)c(NCc3nccnc3N(C)S(C)(=O)=O)n2)cc1 [defactinib]
How it was run: as §1

[5] = compound: CNc1nc(-c2ccc3c(N)n[nH]c3c2)cc(N2C[C@@H](C(=O)NC3CCCCC3)CC[C@H]2C)n1
How it was run: as §1

[6] = compound: COC(=O)N[C@@H](C)CNc1nccc(-c2cn(C(C)C)nc2-c2cc(Cl)cc(NS(C)(=O)=O)c2F)n1 [encorafenib]
How it was run: as §1

[7] = compound: COC(=O)[C@H](CCSC)NC(=O)C1=C(C=C(C=C1)NC[C@H](CS)N)C2=CC=CC=C2
How it was run: as §1

[8] = compound: COc1cc(Nc2ncc3c(n2)-c2ccc(Cl)cc2C(c2c(F)cccc2OC)=NC3)ccc1C(=O)O [alisertib]
How it was run: as §1

[9] = compound: COc1cc2nc(-c3cc(F)ccc3O)nc(N[C@@H]3CNC[C@H]3C(C)(C)O)c2cc1OC
How it was run: as §1

[10] = compound: COc1cc2ncnc(Nc3ccc(F)c(Cl)c3)c2cc1OCCCN1CCOCC1 [gefitinib]
How it was run: as §1

[11] = compound: CS(=O)(=O)CCNCc1ccc(-c2ccc3ncnc(Nc4ccc(OCc5cccc(F)c5)c(Cl)c4)c3c2)o1 [lapatinib]
How it was run: as §1

[12] = compound: CS(=O)(=O)N1CCN(Cc2cc3nc(-c4cccc5[nH]ncc45)nc(N4CCOCC4)c3s2)CC1 [pictilisib]
How it was run: as §1

[13] = compound: C[C@@H](Oc1cc(-c2cnn(C3CCNCC3)c2)cnc1N)c1c(Cl)ccc(F)c1Cl [crizotinib]
How it was run: as §1

[14] = compound: C[C@H](C1=CC=C(C=C1)C(=O)NC2=C3C=CNC3=NC=C2)N
How it was run: as §1

[15] = compound: C[C@H](Nc1ncnc2nc[nH]c12)c1cc2cccc(Cl)c2c(=O)n1-c1ccccc1 [duvelisib]
How it was run: as §1

[16] = compound: Cc1cc(Nc2cc(CN3CCOCC3)c3nc(C)c(Cc4ccc(Cl)cc4F)n3n2)n[nH]1 [gandotinib]
How it was run: as §1

[17] = compound: Cc1cc(Nc2cc(N3CCN(C)CC3)nc(Sc3ccc(NC(=O)C4CC4)cc3)n2)n[nH]1 [tozasertib]
How it was run: as §1

[18] = compound: Cc1ccc(-n2nc(C(C)(C)C)cc2NC(=O)Nc2ccc(OCCN3CCOCC3)c3ccccc23)cc1 [doramapimod]
How it was run: as §1

[19] = compound: Cc1ccc(NC(=O)c2ccc(CN3CC[C@H](N(C)C)C3)c(C(F)(F)F)c2)cc1Nc1nccc(-c2cncnc2)n1 [bafetinib]
How it was run: as §1

[20] = compound: Cc1cccc(CC(=O)N2CCc3c2ccc(-c2cn(C)c4ncnc(N)c24)c3F)n1
How it was run: as §1

Measured: log2 fold change

UAP1L1 (UniProt Q3KQV9)
inactive: [1] 0.05 | [2] -0.132 | [3] 0.008 | [4] -0.156 | [5] 0.032 | [6] -0.009 | [7] 0.186 | [8] 0.022 | [9] 0.069 | [10] -0.035 | [11] -0.035 | [12] 0.004 | [13] -0.007 | [14] 0.218 | [15] -0.191 | [16] -0.124 | [17] 0.093 | [18] 0.04 | [19] -0.033 | [20] -0.112

TUBB2A (UniProt Q13885)
inactive: [1] -0.007 | [2] -0.062 | [3] -0.021 | [4] 0.006 | [5] -0.008 | [6] 0.01 | [7] 0.071 | [8] -0.005 | [9] -0.001 | [10] -0.006 | [11] 0.009 | [12] 0.011 | [13] -0.049 | [14] -0.016 | [15] -0.012 | [16] 0.028 | [17] -0.011 | [18] 0.004 | [19] 0.026 | [20] -0.005

TUBB3 (UniProt Q13509)
inactive: [1] -0.001 | [2] -0.081 | [3] 0.006 | [4] 0.023 | [5] -0.034 | [6] -0.004 | [7] 0.072 | [8] 0.007 | [9] 0.007 | [10] -0.016 | [11] 0.015 | [12] 0.032 | [13] -0.027 | [14] 0.018 | [15] 0.026 | [16] 0.02 | [17] 0.001 | [18] -0.005 | [19] 0.021 | [20] 0.001

TUBE1 (UniProt Q9UJT0)
inactive: [1] 0.06 | [2] -0.001 | [3] 0.062 | [4] 0.107 | [5] -0.027 | [6] 0.036 | [7] -0.108 | [8] 0.052 | [9] -0.009 | [10] -0.005 | [11] -0.008 | [12] -0.005 | [13] 0.095 | [14] 0.214 | [15] -0.01 | [16] -0.076 | [17] 0.054 | [18] -0.034 | [19] -0.066 | [20] -0.029

UBE2D1 (UniProt P51668)
inactive: [1] 0.003 | [2] -0.045 | [3] 0.06 | [4] 0.028 | [5] -0.027 | [6] -0.025 | [7] -0.042 | [8] 0.028 | [9] -0.036 | [10] 0.106 | [11] 0.052 | [12] 0.043 | [13] 0.01 | [14] -0.012 | [15] 0.031 | [16] -0.047 | [17] 0.081 | [18] 0.038 | [19] -0.058 | [20] -0.033

TUT1 (UniProt Q9H6E5)
inactive: [1] 0 | [2] -0.015 | [3] 0.016 | [4] 0.07 | [5] -0.015 | [6] 0.001 | [7] 0.204 | [8] 0.024 | [9] -0.048 | [10] -0.001 | [11] -0.01 | [12] -0.072 | [13] -0.168 | [14] -0.066 | [15] 0.016 | [16] -0.021 | [17] 0.046 | [18] -0.071 | [19] -0.037 | [20] 0.069

UBA3 (UniProt Q8TBC4)
inactive: [1] -0.006 | [2] -0.017 | [3] 0.002 | [4] -0.008 | [5] -0.008 | [6] -0.021 | [7] 0.035 | [8] -0.026 | [9] 0 | [10] -0.035 | [11] -0.026 | [12] -0.025 | [13] -0.016 | [14] -0.017 | [15] 0.019 | [16] 0.01 | [17] -0.001 | [18] 0.021 | [19] 0.025 | [20] -0.009

2 neighbouring records from above, for reference:
TUBB2A (UniProt Q13885)
inactive: [1] -0.007 | [2] -0.062 | [3] -0.021 | [4] 0.006 | [5] -0.008 | [6] 0.01 | [7] 0.071 | [8] -0.005 | [9] -0.001 | [10] -0.006 | [11] 0.009 | [12] 0.011 | [13] -0.049 | [14] -0.016 | [15] -0.012 | [16] 0.028 | [17] -0.011 | [18] 0.004 | [19] 0.026 | [20] -0.005

TUBB3 (UniProt Q13509)
inactive: [1] -0.001 | [2] -0.081 | [3] 0.006 | [4] 0.023 | [5] -0.034 | [6] -0.004 | [7] 0.072 | [8] 0.007 | [9] 0.007 | [10] -0.016 | [11] 0.015 | [12] 0.032 | [13] -0.027 | [14] 0.018 | [15] 0.026 | [16] 0.02 | [17] 0.001 | [18] -0.005 | [19] 0.021 | [20] 0.001

Later entries:

UBR7 (UniProt Q8N806)
inactive: [1] 0.059 | [2] 0.002 | [3] -0.02 | [4] 0.041 | [5] -0.015 | [6] 0.008 | [7] -0.02 | [8] -0.057 | [9] 0.023 | [10] 0.013 | [11] 0.001 | [12] -0.007 | [13] 0.003 | [14] 0.161 | [15] 0.038 | [16] -0.143 | [17] 0.045 | [18] 0.031 | [19] 0.024 | [20] -0.189

TUBGCP4 (UniProt Q9UGJ1)
inactive: [1] 0 | [2] -0.081 | [3] 0.007 | [4] -0.023 | [5] -0.025 | [6] -0.049 | [7] 0.047 | [8] -0.007 | [9] -0.018 | [10] -0.043 | [11] -0.022 | [12] 0.011 | [13] -0.012 | [14] -0.007 | [15] 0.03 | [16] -0.125 | [17] -0.022 | [18] -0.041 | [19] -0.076 | [20] 0.019

UBXN4 (UniProt Q92575)
inactive: [1] 0.003 | [2] 0.009 | [3] 0.029 | [4] -0.038 | [5] -0.019 | [6] 0.024 | [7] -0.029 | [8] -0.076 | [9] 0.05 | [10] -0.104 | [11] -0.004 | [12] -0.043 | [13] -0.017 | [14] -0.176 | [15] -0.004 | [16] 0.164 | [17] 0.015 | [18] -0.002 | [19] 0.012 | [20] 0.239

TUBB (UniProt P07437)
inactive: [1] 0.01 | [2] -0.035 | [3] -0.001 | [4] 0.007 | [5] 0.007 | [6] -0.013 | [7] 0.081 | [8] 0.014 | [9] -0.012 | [10] -0.031 | [11] -0.035 | [12] -0.002 | [13] -0.043 | [14] -0.005 | [15] 0.008 | [16] 0.065 | [17] -0.022 | [18] -0.047 | [19] 0.024 | [20] -0.01

UBA2 (UniProt Q9UBT2)
inactive: [1] 0.018 | [2] 0.009 | [3] -0.019 | [4] -0.019 | [5] 0.015 | [6] -0.013 | [7] -0.003 | [8] 0.005 | [9] -0.003 | [10] -0.023 | [11] -0.01 | [12] 0.023 | [13] 0.058 | [14] 0.004 | [15] 0.013 | [16] -0.033 | [17] -0.011 | [18] 0.001 | [19] 0.002 | [20] -0.037

TTN isoform 12 (UniProt Q8WZ42)
inactive: [1] -0.119 | [2] 0.051 | [3] -0.009 | [4] -0.019 | [5] 0.175 | [6] -0.019 | [7] 0.038 | [8] -0.059 | [9] 0.13 | [10] -0.011 | [11] -0.06 | [12] -0.029 | [13] -0.148 | [14] -0.276 | [15] -0.113 | [16] 0.211 | [17] 0.018 | [18] 0.023 | [19] -0.078 | [20] 0.25

UAP1 (UniProt Q16222)
inactive: [1] 0.011 | [2] -0.016 | [3] 0.03 | [4] -0.002 | [5] -0.005 | [6] -0.023 | [7] 0.079 | [8] 0.005 | [9] -0.011 | [10] 0.02 | [11] -0.001 | [12] 0.014 | [13] -0.016 | [14] -0.017 | [15] -0.001 | [16] -0.029 | [17] -0.014 | [18] 0.008 | [19] -0.009 | [20] 0.002

UBR3 isoform 4 (UniProt Q6ZT12)
inactive: [1] 0.012 | [2] -0.155 | [3] 0.074 | [4] -0.062 | [5] -0.03 | [6] -0.006 | [7] 0.054 | [8] -0.005 | [9] 0.005 | [10] 0.018 | [11] -0.003 | [12] 0.01 | [13] -0.092 | [14] -0.006 | [15] -0.003 | [16] -0.046 | [17] 0.06 | [18] 0.015 | [19] -0.042 | [20] 0.05
